For the assay, the target named is soluble form of full-length LRP1 (low-density lipoprotein receptor-related protein 1) (human). Kind of assay: ELISA.

For one molecule, binding results are on record in doi:10.1101/2022.03.02.482546.

No constants are given. Whether binding was seen depends on the method and setting.

B1: recombinant fibulin1C (protein, UniProt P23142-4 30-683)
chain: DVLLEACCADGHRMATHQKDCSLPYATESKECRMVQEQCCHSQLEELHCATGISLANEQDRCATPHGDNASLEATFVKRCCHCCLLGRAAQAQGQSCEYSLMVGYQCGQVFQACCVKSQETGDLDVGGLQETDKIIEVEEEQEDPYLNDRCRGGGPCKQQCRDTGDEVVCSCFVGYQLLSDGVSCEDVNECITGSHSCRLGESCINTVGSFRCQRDSSCGTGYELTEDNSCKDIDECESGIHNCLPDFICQNTLGSFRCRPKLQCKSGFIQDALGNCIDINECLSISAPCPIGHTCINTEGSYTCQKNVPNCGRGYHLNEEGTRCVDVDECAPPAEPCGKGHRCVNSPGSFRCECKTGYYFDGISRMCVDVNECQRYPGRLCGHKCENTLGSYLCSCSVGFRLSVDGRSCEDINECSSSPCSQECANVYGSYQCYCRRGYQLSDVDGVTCEDIDECALPTGGHICSYRCINIPGSFQCSCPSSGYRLAPNGRNCQDIDECVTGIHNCSINETCFNIQGGFRCLAFECPENYRRSAATRCERLPCHENRECSKLPLRITYYHLSFPTNIQAPAVVFRMGPSSAVPGDSMQLAITGGNEEGFFTTRKVSPHSGVVALTKPVPEPRDLLLTVKMDLSRHGTVSSFVAKLFIFVSAEL
Take B1: the binding entry is given as “no binding”.
